Test results reported in PMC12623807.
These are yes or no findings as the source states them, for the method shown. In cells and extracts the contact can be indirect. Some entries that bind do so weakly or less than the wild type.

Sequences of proteins named here, by UniProt entry; tags and fusion partners are left off.
UniProt Q9NZM1: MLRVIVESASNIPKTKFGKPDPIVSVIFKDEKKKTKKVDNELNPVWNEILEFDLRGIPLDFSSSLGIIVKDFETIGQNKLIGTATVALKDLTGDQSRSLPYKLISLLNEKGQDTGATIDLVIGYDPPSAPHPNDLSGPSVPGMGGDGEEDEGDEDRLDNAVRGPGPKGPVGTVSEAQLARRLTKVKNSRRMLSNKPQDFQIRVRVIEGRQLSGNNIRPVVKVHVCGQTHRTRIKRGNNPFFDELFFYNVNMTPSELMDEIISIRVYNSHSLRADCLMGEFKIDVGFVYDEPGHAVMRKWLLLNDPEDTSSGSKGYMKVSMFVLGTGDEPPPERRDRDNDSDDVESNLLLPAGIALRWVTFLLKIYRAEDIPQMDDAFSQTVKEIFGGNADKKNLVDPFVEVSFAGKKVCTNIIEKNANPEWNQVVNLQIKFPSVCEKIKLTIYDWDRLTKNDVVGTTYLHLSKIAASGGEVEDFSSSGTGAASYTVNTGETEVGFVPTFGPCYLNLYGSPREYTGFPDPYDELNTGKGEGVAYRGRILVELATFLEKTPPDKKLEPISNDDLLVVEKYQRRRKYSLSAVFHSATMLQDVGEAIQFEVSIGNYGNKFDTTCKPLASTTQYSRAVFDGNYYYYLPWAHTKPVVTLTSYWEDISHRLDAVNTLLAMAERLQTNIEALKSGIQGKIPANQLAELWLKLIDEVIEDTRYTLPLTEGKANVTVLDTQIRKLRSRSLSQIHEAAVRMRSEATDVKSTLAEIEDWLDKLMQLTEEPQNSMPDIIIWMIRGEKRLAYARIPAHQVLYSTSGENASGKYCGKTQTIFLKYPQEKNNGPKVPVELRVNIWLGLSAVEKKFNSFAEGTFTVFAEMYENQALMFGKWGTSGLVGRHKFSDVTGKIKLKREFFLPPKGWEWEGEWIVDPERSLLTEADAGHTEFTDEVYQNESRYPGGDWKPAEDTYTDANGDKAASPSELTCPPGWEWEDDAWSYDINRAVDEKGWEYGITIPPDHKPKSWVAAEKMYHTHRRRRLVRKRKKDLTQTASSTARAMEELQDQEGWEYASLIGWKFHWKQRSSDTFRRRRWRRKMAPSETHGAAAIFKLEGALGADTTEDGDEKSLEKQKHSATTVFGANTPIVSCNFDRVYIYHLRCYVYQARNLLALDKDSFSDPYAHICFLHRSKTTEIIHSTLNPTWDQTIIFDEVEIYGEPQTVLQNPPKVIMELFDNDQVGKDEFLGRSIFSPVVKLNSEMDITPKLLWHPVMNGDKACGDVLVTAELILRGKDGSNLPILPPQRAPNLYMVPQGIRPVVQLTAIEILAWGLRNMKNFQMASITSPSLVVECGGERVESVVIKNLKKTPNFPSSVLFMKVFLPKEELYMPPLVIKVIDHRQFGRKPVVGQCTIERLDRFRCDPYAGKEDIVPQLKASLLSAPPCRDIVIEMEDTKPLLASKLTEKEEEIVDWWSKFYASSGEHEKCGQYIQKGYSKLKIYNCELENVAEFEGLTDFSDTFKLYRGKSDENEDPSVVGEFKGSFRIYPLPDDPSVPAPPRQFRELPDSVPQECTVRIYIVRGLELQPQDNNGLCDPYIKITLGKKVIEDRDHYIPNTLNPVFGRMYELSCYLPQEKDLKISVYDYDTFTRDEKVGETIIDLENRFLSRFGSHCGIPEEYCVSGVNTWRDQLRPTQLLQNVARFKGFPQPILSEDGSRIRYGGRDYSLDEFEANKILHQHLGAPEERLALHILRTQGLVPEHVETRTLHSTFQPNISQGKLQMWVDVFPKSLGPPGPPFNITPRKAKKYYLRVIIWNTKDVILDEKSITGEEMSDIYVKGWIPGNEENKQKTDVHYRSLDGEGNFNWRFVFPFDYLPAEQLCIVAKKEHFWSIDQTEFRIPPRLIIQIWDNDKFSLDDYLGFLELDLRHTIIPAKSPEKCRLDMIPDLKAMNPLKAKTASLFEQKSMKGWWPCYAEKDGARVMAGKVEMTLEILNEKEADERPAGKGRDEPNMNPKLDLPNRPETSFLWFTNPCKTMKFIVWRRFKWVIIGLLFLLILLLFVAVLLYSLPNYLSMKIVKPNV

Molecular target: myoferlin (human (endogenous in HPSC127/CAF01 myCAFs)) (UniProt Q9NZM1)
Assay: proximity ligation; Duolink in situ PLA on fixed (4% paraformaldehyde), permeabilised myCAFs (CAF01); primary antibodies 1/100 overnight at 4 °C; control without primary antibodies; PLA dots lost in MYOF knock-down myCAFs (shMYOF#1, shMYOF#2)

B1: TGFß-receptor 1 (receptor, UniProt P36897 34-503)
chain: LQCFCHLCTKDNFTCVTDGLCFVSVTETTDKVIHNSMCIAEIDLIPRDRPFVCAPSSKTGSVTTTYCCNQDHCNKIELPTTVKSSPGLGPVELAAVIAGPVCFVCISLMLMVYICHNRTVIHHRVPNEEDPSLDRPFISEGTTLKDLIYDMTTSGSGSGLPLLVQRTIARTIVLQESIGKGRFGEVWRGKWRGEEVAVKIFSSREERSWFREAEIYQTVMLRHENILGFIAADNKDNGTWTQLWLVSDYHEHGSLFDYLNRYTVTVEGMIKLALSTASGLAHLHMEIVGTQGKPAIAHRDLKSKNILVKKNGTCCIADLGLAVRHDSATDTIDIAPNHRVGTKRYMAPEVLDDSINMKHFESFKRADIYAMGLVFWEIARRCSIGGIHEDYQLPYYDLVPSDPSVEEMRKVVCEQKLRPNIPNRWQSCEALRVMAKIMRECWYANGAARLTALRIKKTLSQLSQQEGIKM
  binding: binds
